Experimental findings from PubChem BioAssay AID328 (DTP/NCI, 2004) are described below.

SMILES strings stand for the structures. The list is a part of this screen's results and no random one: it gathers tests that were run many times, whatever their T/C, doses with no T/C, and many T/C values between a quarter and a half above the control. Further doses and runs are listed elsewhere. T/C: endpoint of the treated group in % of that of the vehicle group. Some entries give survivors of the animals treated and no T/C: the source files T/C as zero there, which appears to mark a toxic dose or a test without result, not a measured value. Some doses without a T/C left all or most animals alive at the check, yet need not have been tolerated: survival well below the control is almost never listed, so the zero probably covers shortened survival too. Survivors were counted at the toxicity check, usually on the fifth day, unless a day is given; later deaths do not show. Schedule codes are those of the source, taken here to give the interval after Q, in days (D) or hours (H), and the number of doses after X. Where survival is the endpoint, this PubChem deposit counts one and a half times the control or more as active, and values a quarter to a half above the control carry no call in these data; other NCI protocols may use other cut-offs. Some entries hold several experiments; the values are given in rising order. Some T/C values are followed by the survivors on the day toxicity was checked, most often the fifth; without a count, all were alive then.

The subject of this experiment is BDF1 mice, P388 leukemia ip, median survival T/C. Nature of the experiment: NCI In Vivo Anticancer Drug Screen. Data for tumor model P388 Leukemia (intraperitoneal) in B6D2F1 (BDF1) mice. The settings on record: T/C endpoint: median survival time, higher T/C = longer survival. Summed up: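 Reported as T/C, where T is the survival measurement in dosed animals and C the same measurement in vehicle controls.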

Where [1] appears, read: dose: 200.0 mg/kg/injection, schedule: Q04DX003 (ip), vehicle: saline.
Setting [2] is: dose: 50.0 mg/kg/injection, schedule: Q01DX009 (ip), vehicle: saline.
[3] abbreviates: dose: 100.0 mg/kg/injection, schedule: Q01DX009 (ip), vehicle: saline.
[4] abbreviates: dose: 200.0 mg/kg/injection, schedule: Q01DX009 (ip), vehicle: saline.
[5] abbreviates: dose: 200.0 mg/kg/injection, schedule: Q04DX003 (ip), vehicle: saline with Tween-80.
Setting [6] is: dose: 6.0 mg/kg/injection, schedule: Q01DX009 (ip), vehicle: saline.

Turning to `CN(C)[C@@H]1C(=O)C(C(N)=O)=C(O)[C@]2(O)C(=O)C3C(=O)c4c(O)ccc(Cl)c4[C@](C)(O)[C@H]3C[C@@H]12` (stereo not given in full), the T/C reads like this: (dose: 18.75 mg/kg/injection, schedule: Q01DX009 (ip), vehicle: saline with Tween-80) 136 % of control; (dose: 37.5 mg/kg/injection, schedule: Q01DX009 (ip), vehicle: saline with Tween-80) 136 % of control; (dose: 49.5 mg/kg/injection, schedule: Q04DX003 (ip), vehicle: saline sonified) 130 % of control; (dose: 75.0 mg/kg/injection, schedule: Q01DX009 (ip), vehicle: saline sonified) 131 % of control; (dose: 75.0 mg/kg/injection, schedule: Q01DX009 (ip), vehicle: saline with Tween-80) 136 % of control; (dose: 75.0 mg/kg/injection, schedule: Q04DX003 (ip), vehicle: saline sonified) 130 and 140 % of control. Also, the T/C by setting is: (dose: 112.5 mg/kg/injection, schedule: Q04DX003 (ip), vehicle: saline sonified) 140 % of control; (dose: 150.0 mg/kg/injection, schedule: Q01DX009 (ip), vehicle: saline sonified) 140 % of control; (dose: 300.0 mg/kg/injection, schedule: Q04DX003 (ip), vehicle: saline sonified) 145 % of control. Moreover, the survivor count is 3 of 6 (dose: 150.0 mg/kg/injection, schedule: Q04DX003 (ip), vehicle: saline sonified) and 3 of 6 (dose: 300.0 mg/kg/injection, schedule: Q01DX009 (ip), vehicle: saline sonified).
Take `CCN(CC)CCCC(C)Nc1c2ccc(Cl)cc2nc2cc(Cl)ccc12` (stereo not given): the T/C by setting is: (dose: 25.0 mg/kg/injection, schedule: Q01DX009 (ip), vehicle: Klucel (hydroxypropylcellulose) (HPC)) 135 % of control; (dose: 50.0 mg/kg/injection, schedule: Q01DX009 (ip), vehicle: Klucel (hydroxypropylcellulose) (HPC)) 132 % of control. For the same compound, the survivor count (dose: 100.0 mg/kg/injection, schedule: Q01DX009 (ip), vehicle: Klucel (hydroxypropylcellulose) (HPC)) is recorded as 4 of 6.
On to `CC(C)NC(=O)OCc1c(COC(=O)NC(C)C)c(-c2ccc(Cl)c(Cl)c2)n2c1CCC2`, for which the T/C (dose: 50.0 mg/kg/injection, schedule: Q01DX009 (ip), vehicle: other) is 125 % of control. Moreover, the survivor count is on record as 6 of 6 (dose: 100.0 mg/kg/injection, schedule: Q01DX009 (ip), vehicle: other) and 4 of 6 (dose: 200.0 mg/kg/injection, schedule: Q01DX009 (ip), vehicle: other).
On to `NNC(=O)c1ccc(Cl)cc1Nc1ccc(F)cc1`, for which, under setting [1], the survivor count is listed as 0 of 6.
Regarding `CCC1(O)CC2CN(CCc3c([nH]c4ccccc34)C(C(=O)OC)(c3cc4c(cc3OC)N(C)C3C(O)(C(N)=O)C(O)C5(CC)C=CCN6CCC43C65)C2)C1` (stereo not given) (tested in a mixture with another compound), the survivor count (dose: 3000.0 micrograms/kg/injection, schedule: Q04DX003 (ip), vehicle: saline) is 8 of 8.
As to `CCN(CC)CCCCCCCNc1cc(OC)cc2c(C)ccnc12`, the survivor count was 1 of 6 under setting [2], 0 of 6 under setting [3] and 0 of 6 under setting [4].
As to `CN(C)c1ccc(Cc2ccc(N(C)C)c(C(O)(c3ccccc3)c3ccccc3)c2)cc1C(O)(c1ccccc1)c1ccccc1`, the survivor count by setting is: (dose: 12.5 mg/kg/injection, schedule: Q01DX005 (ip), vehicle: saline with Tween-80) 6 of 6; (dose: 25.0 mg/kg/injection, schedule: Q01DX005 (ip), vehicle: saline with Tween-80) 6 of 6; (dose: 50.0 mg/kg/injection, schedule: Q01DX005 (ip), vehicle: saline with Tween-80) 6 of 6.
On to `O=C1c2cccc(O)c2C(=O)c2c(O)cccc21`, for which, under setting [1], the survivor count was 6 of 6.
Take `O=C1C=CC(=Nc2ccc3c(c2)C(Br)c2ccccc2-3)O1` (stereo not given): the survivor count (dose: 100.0 mg/kg/injection, schedule: Q04DX003 (ip), vehicle: saline with Tween-80) was 0 of 6; the survivor count under setting [5] is given as 2 of 6; the survivor count (dose: 215.0 mg/kg/injection, schedule: Q04DX003 (ip), vehicle: saline) is 0 of 6; the survivor count (dose: 400.0 mg/kg/injection, schedule: Q04DX003 (ip), vehicle: saline with Tween-80) is reported as 0 of 6.
`C[C@H]1/C(=C/C(=O)OCCN(C)C)CC[C@H]2[C@H]1C(=O)C[C@H]1C(C)(C)[C@@H](O)CC[C@]21C`: the survivor count runs as follows: under setting [2], 0 of 6; (dose: 64.0 mg/kg/injection, schedule: Q01DX010 (ip), vehicle: saline) 0 of 6; under setting [3], 0 of 6; (dose: 128.0 mg/kg/injection, schedule: Q01DX010 (ip), vehicle: saline) 0 of 6; under setting [4], 0 of 6; (dose: 400.0 mg/kg/injection, schedule: Q01DX009 (ip), vehicle: saline) 0 of 6.
For the compound `ClC1=C(Br)C(Br)(Br)C(=C(Br)Br)C1(Br)Br`, under “dose: 200.0 mg/kg/injection, schedule: Q04DX003 (ip), vehicle: Klucel (hydroxypropylcellulose) (HPC)”, the survivor count is listed as 6 of 6.
For `NC(=O)C1(c2ccccc2)CCN(Cc2ccccc2)CC1`, the survivor count is, setting by setting: (dose: 200.0 mg/kg/injection, schedule: Q01DX009 (ip), vehicle: saline with Tween-80) 4 of 6; under setting [5], 4 of 6.
Turning to `CC1C[N-]CC(C)C1.CC1C[N-]CC(C)C1.CC1C[N-]CC(C)C1.CC1C[N-]CC(C)C1.[Cl][Rh][Cl]` (stereo not given), the T/C runs as follows: (dose: 0.75 mg/kg/injection, schedule: Q01DX009 (ip), vehicle: saline) 146 % of control; (dose: 1.5 mg/kg/injection, schedule: Q01DX009 (ip), vehicle: saline) 146 % of control; (dose: 3.0 mg/kg/injection, schedule: Q01DX009 (ip), vehicle: saline) 136 and 146 % of control; under setting [6], 128 % of control. Further, the survivor count was 3 of 6 under setting [6] and 1 of 6 (dose: 12.0 mg/kg/injection, schedule: Q01DX009 (ip), vehicle: saline).
On to `COc1cc2cc(c1Cl)N(C)C(=O)CC(OC(=O)C(F)(F)F)C1(C)OC1C(C)C1CC(O)(NC(=O)O1)C(OC)C=C/C=C(\C)C2` (stereo not given), for which the T/C by setting is: (dose: 25.0 micrograms/kg/injection, schedule: Q01DX009 (ip), vehicle: saline + alcohol) 130 % of control; (dose: 50.0 micrograms/kg/injection, schedule: Q01DX009 (ip), vehicle: saline + alcohol) 130 % of control; (dose: 200.0 micrograms/kg/injection, schedule: Q01DX009 (ip), vehicle: saline + alcohol) 140 % of control.
For the compound `OCC1OC(n2cnc3c2NC=NC[C@H]3O)C(O)C1O` (stereo not given in full), the survivor count was 3 of 5 (dose: 0.78 mg/kg/injection, schedule: Q01DX009 (ip), vehicle: saline); 3 of 5 (dose: 1.56 mg/kg/injection, schedule: Q01DX009 (ip), vehicle: saline); 2 of 5 (dose: 3.13 mg/kg/injection, schedule: Q01DX009 (ip), vehicle: saline).
As to `COC(=O)c1cc(=O)n(-c2cccc(F)c2)c(SC)n1`, the survivor count (dose: 400.0 mg/kg/injection, schedule: Q04DX003 (ip), vehicle: Klucel (hydroxypropylcellulose) (HPC)) is given as 0 of 6.
Consider `CCCCCCCC(=O)[O][Hg][CH2]C1COC([CH2][Hg][O]C(=O)CCCCCCC)CO1` (stereo not given), for which the T/C (dose: 25.0 mg/kg/injection, schedule: Q01DX009 (ip), vehicle: saline sonified) was 125 % of control [5 of 6 alive] and the T/C (dose: 25.0 mg/kg/injection, schedule: Q04DX003 (ip), vehicle: saline sonified) was 137 % of control. Further, the survivor count reads like this: (dose: 50.0 mg/kg/injection, schedule: Q01DX009 (ip), vehicle: saline sonified) 6 of 6; (dose: 100.0 mg/kg/injection, schedule: Q04DX003 (ip), vehicle: saline sonified) 0 of 6.
Take `COc1cc(NCCCCCCNCC(C)C)c2nccc(C)c2c1`: the survivor count under setting [2] is 5 of 6, the survivor count under setting [3] is 0 of 6 and the survivor count under setting [4] is reported as 0 of 6.
For `c1ccc(-c2nc3ccccc3nc2-c2ccc(Sc3ccc(-c4nc5ccccc5nc4-c4ccccc4)cc3)cc2)cc1`, where the note is “dose: 50.0 mg/kg/injection, schedule: Q01DX009 (ip), vehicle: saline with Tween-80”, the survivor count is reported as 6 of 6.
